In PubChem BioAssay AID1487 (National Center for Advancing Translational Sciences (NCATS), 2009):
Some of the results follow. Further columns of the screen follow, without active or inactive calls. Most of these compounds were active or inconclusive in the main read-out, so they are no random draw. Words in brackets tell the shape of the fitted curve; partial curves, single points and poor fits give uncertain potencies.

Experiment: qHTS Assay for Modulators of Lamin A Splicing
Conditions: HeLa LMNA splicing GFP/RFP minigene ratio, 48 h
Method in brief: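 Read-out is the ratio of GFP to DsRed2 object intensity, acquired by 488 nm laser-scanning cytometry on HeLa lamin A-EGFP minigene reporter cells. Compound incubation 48 hrs at 37 °C in Opti-MEM with 2% FBS; DMSO 0.5% final.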

[1] = measured here: GFP splicing reporter channel
[2] = measured here: RFP viability control channel

## S=c1[nH]cc(-c2ccccc2)n1-c1cccc(Cl)c1
[1]
  AC50: 17.8 µM [rising, partial curve]
[2]
  AC50: 35.5 µM [rising, single point]

## Cc1nn(-c2ccccc2)c(N)c1C(c1ccc(C(C)C)cc1)c1c(C)nn(-c2ccccc2)c1N
[2]
  AC50: 11.2 µM [rising, partial curve]

## Nc1[nH]nc2nc(N3CCOCC3)nc(-c3ccccc3)c12
[2]
  AC50: 35.5 µM [rising, single point]

## O=c1c(=O)n(Cc2c(F)cccc2Cl)ccn1Cc1ccccc1
[2]
  AC50: 31.6 µM [rising, single point]

## Cc1nn(Cc2cccc(C(=O)N3CCCC(C)C3)c2)c(C)c1[N+](=O)[O-] (centres undefined)
[2]
  AC50: 17.8 µM [rising, single point]

## CCn1c(-c2ccc(Cl)cc2)n[nH]c1=S
[2]
  AC50: 12.6 µM [falling, partial curve, poor fit]

## O=C(CSc1nnnn1-c1ccccc1)Nc1ncc2c(n1)CC(c1ccco1)CC2=O (centres undefined)
[1]
  AC50: 17.8 µM [rising, partial curve, poor fit]

## O=C(C1CCCO1)N1CCN(C(=S)Nc2ccc(Cl)cc2Cl)CC1 (centres undefined)
[1]
  AC50: 12.6 µM [rising, single point]
[2]
  AC50: 14.1 µM [rising, partial curve]

## COc1ccc(/C=C2\CCCC3C2=NN(C(=O)COC(=O)CNC(=O)c2ccccc2)C3c2ccc(OC)cc2)cc1 (centres undefined)
[2]
  AC50: 20 µM [rising, single point]

## Cc1cccc(C#Cc2ccccc2)n1
[2]
  AC50: 0.00224 µM [falling, full curve, poor fit]

## COc1cccc(-n2c(=O)c3c(C)c(C(=O)N(C)C)sc3n(CC(=O)NCC3CCCO3)c2=O)c1 (centres undefined)
[2]
  AC50: 0.0708 µM [falling, full curve, poor fit]

## O=C(CN1C(=O)C2CCCCN2c2ccc(C(=O)N3CCCC3)cc21)NCc1cccc(F)c1 (centres undefined)
[1]
  AC50: 5.62 µM [falling, partial curve, poor fit]

## COc1ccc(NC(=O)Nc2ccccc2OCc2cc(=O)n3ccccc3n2)c(OC)c1
[1]
  AC50: 35.5 µM [falling, single point]
[2]
  AC50: 35.5 µM [falling, single point]

## COc1ccc(-c2nc(NC(=O)C3CCN(c4nc5ccccc5o4)CC3)sc2C)cc1
[2]
  AC50: 11.2 µM [rising, partial curve]

## CC(=O)OC1CC2CCC1(C)C2(C)C (centres undefined)
[1]
  AC50: 35.5 µM [rising, single point]

## CCN(CC)CCOc1ccc2nc(N(C)C)sc2c1
[2]
  AC50: 1.41 µM [rising, partial curve, poor fit]

## CCOC(=O)N1CCC(Nc2ncnc3c2cnn3-c2ccc(C)cc2C)CC1
[2]
  AC50: 14.1 µM [rising, partial curve]

## O=C(NCc1ccccc1)c1ccc2c(c1)nc1n2CCCCC1
[1]
  AC50: 0.708 µM [rising, single point]
[2]
  AC50: 0.794 µM [rising, full curve, poor fit]

## Cn1cnnc1Sc1ccc(/C=C/C(=O)c2ccc(O)cc2)cc1[N+](=O)[O-]
[1]
  AC50: 0.0891 µM [falling, full curve]
[2]
  AC50: 0.112 µM [falling, full curve, poor fit]

## Cc1cc(C)n(Cc2ccc(C(=O)Nc3ccc(Br)cc3C)o2)n1
[2]
  AC50: 35.5 µM [rising, single point]

## CCOc1cccc(C(=O)Nc2ccc3oc(Cc4ccc(Cl)cc4)nc3c2)c1
[2]
  AC50: 6.31 µM [rising, full curve]

## CCn1ccc(C(=O)Nc2ccc(S(=O)(=O)Nc3ccccc3OC)cc2)n1
[1]
  AC50: 17.8 µM [rising, single point]
[2]
  AC50: 22.4 µM [rising, single point]

## COc1ccc(N(CC(=O)Nc2ccc(S(=O)(=O)N3CCCCC3)cc2)S(C)(=O)=O)cc1OC
[2]
  AC50: 0.0224 µM [rising, full curve, poor fit]

## N#Cc1ccc(C(=O)NCC(c2ccco2)N2CCCC2)cc1 (centres undefined)
[2]
  AC50: 0.00794 µM [falling, full curve, poor fit]

## CCn1c(Cc2ccccc2)nnc1SCC(=O)Nc1ccc2c(c1)OCO2
[1]
  AC50: 12.6 µM [rising, partial curve]

## COc1cc2c(cc1OC)CN(C(=O)CC1CC3CCC1C3)CC2 (centres undefined)
[2]
  AC50: 35.5 µM [rising, single point]

## COc1ccc(C(=O)Nc2ccc(NC(=O)C(C)C)nc2)cc1
[2]
  AC50: 0.631 µM [falling, partial curve]

## O=C(O)C1Cc2[nH]cnc2C(c2ccccc2O)N1 (centres undefined)
[1]
  AC50: 0.0316 µM [falling, partial curve, poor fit]

## COc1ccc(-n2c(NN)nc3sc4c(c3c2=O)CCCC4)cc1
[1]
  AC50: 11.2 µM [falling, partial curve]

## O=C(Nc1ccc(Cl)cc1)Nc1cnccn1
[1]
  AC50: 3.16 µM [falling, partial curve]

## Cc1cccc(C)c1NC(=O)c1ccc(-c2ccc(Cl)cc2Cl)o1
[2]
  AC50: 35.5 µM [rising, single point]

## CCOC(=O)c1c(NC(=O)c2c(-c3ccccc3)noc2C)sc(C)c1-c1ccccc1
[2]
  AC50: 0.112 µM [rising, full curve, poor fit]

## CCOC(=O)c1c(CN(C)C)n(C)c2ccc(OC(C)=O)cc12
[2]
  AC50: 0.0447 µM [rising, full curve, poor fit]

## Cc1[nH][nH]c(=O)c1/C=N/N1CCOCC1
[1]
  AC50: 6.31 µM [falling, single point]

## CC(C)Cn1c(CNC(=O)c2ccccc2)nc2ccccc21
[2]
  AC50: 31.6 µM [rising, single point]

## N/C(Cn1cncn1)=N\OC(=O)c1ccc(Cl)cc1Cl
[1]
  AC50: 1.41 µM [rising, full curve]
[2]
  AC50: 3.16 µM [rising, partial curve, poor fit]

## Cc1cc(C)c(NC(=S)N(Cc2cccnc2)Cc2ccco2)c(C)c1
[2]
  AC50: 35.5 µM [rising, single point]

## COc1ccc(Nc2nc(CC(C)=O)ns2)cc1
[2]
  AC50: 31.6 µM [rising, single point]

## COc1ccc(C/C(O)=C(\C#N)c2nc3ccccc3s2)cc1
[2]
  AC50: 31.6 µM [rising, single point]

## Cc1ccc(C(=O)NC(=S)Nc2ccc(N3CCOCC3)cc2)c(C)c1
[1]
  AC50: 0.0316 µM [falling, full curve, poor fit]
[2]
  AC50: 0.00316 µM [falling, full curve, poor fit]

## CCCOc1ccc(NC(=O)C2CC(=O)N/C(=N/N=C(C)/C=C/c3ccc(N(C)C)cc3)S2)cc1 (centres undefined)
[1]
  AC50: 0.1 µM [rising, full curve, poor fit]
[2]
  AC50: 0.0224 µM [rising, full curve, poor fit]

## COc1cccc(Cn2c(=O)c(C)nc3cnc(OC)nc32)c1
[1]
  AC50: 17.8 µM [falling, partial curve]

## COc1ccc(-c2csc3nc(-c4ccccc4F)oc(=O)c23)cc1OC
[1]
  AC50: 14.1 µM [falling, single point]
[2]
  AC50: 22.4 µM [falling, single point]

## C=C(C)c1cccc(C(C)(C)NC(=O)Nc2cc(C)ccn2)c1
[2]
  AC50: 3.16 µM [rising, single point]

## COc1ccc(OC)c(S(=O)(=O)Nc2ccc(Oc3ccccc3)cc2)c1
[1]
  AC50: 2 µM [rising, full curve]
[2]
  AC50: 5.01 µM [rising, partial curve]

## Clc1ccccc1N=C1NN=C(c2cccs2)CS1
[2]
  AC50: 0.01 µM [falling, full curve, poor fit]

## CCCCCCCCOC(=O)C[N+](C)(C)C/C=C(/C)Cl
[2]
  AC50: 17.8 µM [rising, single point]

## CN(C)Cc1c(O)ccc2oc(Cc3ccccc3)cc12
[2]
  AC50: 8.91 µM [rising, partial curve]

## COc1ccc(N2CCN(C(=O)CSc3nnc4c(C)cc5c(C)cc(C)cc5n34)CC2)cc1
[2]
  AC50: 12.6 µM [rising, partial curve, poor fit]

## CCC(C)n1c(=S)[nH]c2c(sc3ccc([N+](=O)[O-])cc32)c1=O (centres undefined)
[2]
  AC50: 5.62 µM [rising, single point]

## Cc1ccc(NC(=O)C(=O)NCCc2csc3nc(-c4ccccc4C)nn23)cc1Cl
[1]
  AC50: 0.251 µM [falling, full curve, poor fit]
[2]
  AC50: 0.112 µM [falling, full curve, poor fit]

## O=C(Nc1ccc(S(=O)(=O)N(Cc2ccccc2)c2ccccc2)cc1)c1ccc([N+](=O)[O-])cc1
[1]
  AC50: 7.94 µM [falling, partial curve, poor fit]
[2]
  AC50: 5.01 µM [falling, partial curve, poor fit]

## O=[N+]([O-])c1cccc(CSc2ncnc3ccccc23)c1
[1]
  AC50: 11.2 µM [falling, partial curve]

## CN1N=C(c2ccc(Cl)cc2)CC(c2ccc(Cl)cc2)C1=O (centres undefined)
[1]
  AC50: 1.26 µM [rising, single point]

## COC(=O)c1ccccc1NC(=O)CN1CCC(NC(=O)c2ccccc2C)CC1
[1]
  AC50: 8.91 µM [rising, partial curve, poor fit]
[2]
  AC50: 20 µM [rising, single point]

## CCCN(CC(=O)Nc1ccccc1C)C(=O)CCl
[1]
  AC50: 7.08 µM [falling, partial curve, poor fit]
[2]
  AC50: 35.5 µM [falling, single point]

## CC(Oc1ccc(Br)cc1)C(=O)N1CCc2ccccc21 (centres undefined)
[2]
  AC50: 25.1 µM [rising, single point]

## CCOc1ccc(NC(=O)/C(C#N)=C/c2ccc(N3CCCC3)c(C)c2)cc1
[1]
  AC50: 17.8 µM [falling, single point]
[2]
  AC50: 1.78 µM [falling, partial curve, poor fit]
